Reference: publication PMC4674770
These are yes or no findings as the source states them, for the method shown. Binding seen in cells or lysates may run through a third protein. Some results given as binding are weak or reduced against the parent protein; the word gives no strength.

Protein sequences, listed by entry. Tags and fused reporters are not part of them. Residues count along the entry.
UniProt P12023, residues 18-770: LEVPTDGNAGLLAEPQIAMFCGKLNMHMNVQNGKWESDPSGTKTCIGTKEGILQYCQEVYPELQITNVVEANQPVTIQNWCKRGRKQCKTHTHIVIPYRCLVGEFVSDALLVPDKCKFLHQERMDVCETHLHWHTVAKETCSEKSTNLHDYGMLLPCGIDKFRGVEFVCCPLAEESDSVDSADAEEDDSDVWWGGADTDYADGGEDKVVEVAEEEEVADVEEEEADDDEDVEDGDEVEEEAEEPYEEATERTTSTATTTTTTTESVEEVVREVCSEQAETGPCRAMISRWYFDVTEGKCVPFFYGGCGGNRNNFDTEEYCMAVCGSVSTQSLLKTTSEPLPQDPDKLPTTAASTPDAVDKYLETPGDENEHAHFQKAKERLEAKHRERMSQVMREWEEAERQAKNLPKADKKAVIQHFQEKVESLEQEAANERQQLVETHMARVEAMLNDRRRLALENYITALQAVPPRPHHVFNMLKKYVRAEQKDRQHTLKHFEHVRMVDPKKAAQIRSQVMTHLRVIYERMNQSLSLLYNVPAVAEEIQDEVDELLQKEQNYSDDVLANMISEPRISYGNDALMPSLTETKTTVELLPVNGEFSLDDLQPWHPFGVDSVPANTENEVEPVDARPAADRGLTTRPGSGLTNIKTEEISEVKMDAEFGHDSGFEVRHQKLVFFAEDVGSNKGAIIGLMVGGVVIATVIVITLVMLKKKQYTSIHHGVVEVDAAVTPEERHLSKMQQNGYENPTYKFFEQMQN

Molecular target: T1, NCAM2 at the cell surface of cultured mouse hippocampal neurons (mouse (endogenous in cultured hippocampal neurons)) (UniProt O35136)
T1 sequence: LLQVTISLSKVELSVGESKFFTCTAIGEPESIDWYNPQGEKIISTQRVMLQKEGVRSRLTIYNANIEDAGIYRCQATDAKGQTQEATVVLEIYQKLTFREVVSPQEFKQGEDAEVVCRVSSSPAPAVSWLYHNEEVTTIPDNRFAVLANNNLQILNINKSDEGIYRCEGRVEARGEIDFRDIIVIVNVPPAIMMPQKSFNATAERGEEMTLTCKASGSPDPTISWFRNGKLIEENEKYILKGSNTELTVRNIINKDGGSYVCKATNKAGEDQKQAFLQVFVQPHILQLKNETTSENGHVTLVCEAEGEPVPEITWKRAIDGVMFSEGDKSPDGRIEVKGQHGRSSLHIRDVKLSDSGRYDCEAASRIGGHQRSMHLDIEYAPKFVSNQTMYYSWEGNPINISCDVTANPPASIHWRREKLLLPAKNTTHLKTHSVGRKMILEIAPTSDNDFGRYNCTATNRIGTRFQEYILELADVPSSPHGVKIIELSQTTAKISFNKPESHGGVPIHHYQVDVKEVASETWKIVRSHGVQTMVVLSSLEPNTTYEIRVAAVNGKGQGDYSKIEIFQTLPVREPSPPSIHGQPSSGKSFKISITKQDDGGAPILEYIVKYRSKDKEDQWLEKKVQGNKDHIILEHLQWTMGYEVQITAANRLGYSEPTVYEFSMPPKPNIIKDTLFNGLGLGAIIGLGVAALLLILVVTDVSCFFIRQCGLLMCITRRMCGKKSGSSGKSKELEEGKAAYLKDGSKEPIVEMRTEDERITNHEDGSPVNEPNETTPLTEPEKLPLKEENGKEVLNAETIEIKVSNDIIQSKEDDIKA
Test: proximity ligation; mock-treated cultured mouse hippocampal neurons, fixed, not permeabilized; antibodies against Aβ1-42 (sc-28365) and the extracellular domain of NCAM2

Q: How did the binding turn out when “endogenous APP in cultured mouse hippocampal neurons (from UniProt P12023 18-770)” was run?
A: binds weakly
